Data from the supplement of paper PMC3334620.
Over roughly 33,000 sequences, “E-score (-0.5 to 0.5)” has its median near -8e-05; the highest 2% begin near 0.23. The list shows a part of the results.

biological target: T1, Nrg2 (UniProt P38082); experiment: PBM E-score (8-mer binding enrichment) (E-score (-0.5 to 0.5)); higher = stronger / more preferred TF binding; settings: protein concentration: 100 nM; construct: GST-full length
T1 sequence: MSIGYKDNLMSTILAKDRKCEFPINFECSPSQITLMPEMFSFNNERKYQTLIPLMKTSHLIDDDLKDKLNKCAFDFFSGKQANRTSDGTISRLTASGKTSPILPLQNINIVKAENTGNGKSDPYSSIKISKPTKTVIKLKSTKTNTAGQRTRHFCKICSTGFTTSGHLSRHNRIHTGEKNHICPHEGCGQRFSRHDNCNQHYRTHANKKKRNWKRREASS
Experimental: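 Universal 'all 10-mer' protein binding microarrays (Agilent AMADID 015681) probed with GST-tagged S. cerevisiae TFs (full-length or DBD) made by in vitro transcription/translation (PURExpress), about 100-200 nM. Bound TF was detected with fluorescent anti-GST. Each ungapped 8-mer (which stands for itself and its reverse complement) is scored by the PBM enrichment score (E-score), a modified Wilcoxon-Mann-Whitney statistic from -0.5 to +0.5, computed with the Universal PBM Analysis Suite. Scale: above 0.35 generally sequence-specific binding.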

Sequence | PBM E-score
ACAAGCGC | 0.0708
CTGCCACC | -0.338
ATTTTTGA | 0.0108
AAGTGGTA | -0.0491
CCTCACCA | -0.0117
AAGAAATG | 0.183
AGGGCTCG | 0.0217
ACCGAGGG | -0.308
CCCGGGTC | -0.0843
AGCGCGGC | 0.0579
CGGGTAAA | 0.117
CTACTCTA | -0.0109
ATTTGGTA | 0.081
GATCTGAC | 0.0527
CGATTAAA | 0.0468
AGCGTTCC | 0.0239
CTATTGAG | 0.148
GATTAATC | 0.116
CATCCTCG | -0.0167
GTCGCTAA | -0.0617
ATATTATG | 0.304
ATATGCAA | 0.0594
AACTATTA | 0.125
CTGGTCCC | -0.0433
CCAACGAG | -0.13

Rewritten with tabs: part of the list above.
Sequence	PBM E-score
CCTCACCA	-0.0117
AAGAAATG	0.183
AGGGCTCG	0.0217
ACCGAGGG	-0.308
CCCGGGTC	-0.0843

The list goes on:

Sequence | PBM E-score
ACTTAATG | 0.0989
ATCGAGAC | -0.0993
ATCGTGCA | 0.0864
AGCCATAT | -0.0547
CTGGACTA | -0.129
CAGGTTCA | -0.0574
GCGATCTA | 0.128
CGTGTGAA | -0.0465
CCAAGGAG | -0.0878
GTCTCCAC | -0.0329
AAGGCAGA | -0.092
CTCTGGTC | -0.153
CGATCCTC | -0.12
TCCATAAA | 0.0921
ACGTACTC | -0.004
CCCTATAA | -0.113
AGATAATC | -0.0178
CAGCGATA | -0.0715
GATCCAGA | 0.187
CCACGCCG | -0.154
AATGGTTA | 0.00607
AAGATTCA | 0.0877
AAGACTAT | -0.0854
AAGGGACT | 0.123
CAGCCTAA | -0.187

Sequence | PBM E-score
GACACAGA | 0.0495
ACGGACAC | 0.051
CTCCTCGA | 0.0152
CTTCGCGC | 0.232
CAACACGG | 0.104
CCAACTAC | 0.0973
TATTAATA | 0.152
CCATCGAG | 0.21
CCGCTCAG | -0.0837
GAGTGCGA | -0.0302
CAACATAC | 0.0785
ACTTCACA | -0.0488
CCCAACGC | 0.0482
CTTAAGCC | -0.0732
CAGAGCAG | -0.0155
ACAAGAAT | 0.0779
AATTGTAC | 0.123
ACGGCCCG | -0.1
ATGCGTTG | -0.0299
ACTCTCTC | -0.0585
GACTTAAA | -0.156
AGTATACA | 0.152
ACTGTTTG | 0.0928
ACTTTGGA | -0.0192
CTGGGAAC | 0.191

Sequence | PBM E-score
GCATCCAC | 0.0455
GGTTTAAC | 0.0156
ACTGTCCG | 0.0479
TGCGTACA | 0.00957
CGCTGAGA | 0.101
TACAACAA | 0.137
GCCAGAAA | 0.189
AACCTTAC | 0.108
CTGTGGTA | 0.0338
CAGCAGTC | -0.0644
CCATATAC | 0.106
ATTGATAG | -0.0275
AGGGCGGC | -0.15
ACACTTCT | -0.0302
CTATGAAA | 0.094
ATATAACA | 0.078
GACACCTA | -0.0331
GTTCATAA | 0.00496
AATCTACC | -0.0203
GTCTGTTA | 0.0486
CGAATGAG | 0.0496
ATTTTACG | 0.123
GGCTAAAA | -0.179
CCTCTAAC | -0.116
ACTGACAT | 0.0848

Sequence | PBM E-score
ATAGATCC | 0.0868
AGACGAGA | 0.0307
GCCATGTA | -0.00257
TAATAACA | 0.00017
ACGATCCA | -0.0753
CAGTAATC | 0.0128
AGACAAAG | -0.0323
AACTTTAT | 0.124
CCACTCCG | 0.0616
AAGCTACG | 0.00996
CTTAGTCA | -0.0736
GATTGAGA | 0.227
AAGGTTGG | -0.0643
GTATTGGA | -0.161
GCCGAAAC | -0.0148
AATTAGAT | 0.182
GCATCGCA | -0.109
AACGATAC | 0.00715
GATAGTCC | 0.0182
GCAATGCC | 0.00399
CCACGTAA | -0.0711
GGACAAGA | 0.159
ATATTCAA | 0.244
ACCGGATC | -0.0249
GTCCCCCA | -0.24

Sequence | PBM E-score
CCTAAGAA | -0.0478
TAACCCTA | 0.0534
GCGTAGCA | 0.12
ACCGCCGT | 0.00098
TAGTTTAA | 0.0774
AACTCATT | -0.0375
AGTGGCCA | -0.00148
CATGCATG | 0.0614
AGAATACC | 0.191
AGTACCGG | -0.203
CTAAGTAG | 0.136
GAGGTCGC | -0.194
CGAGACTC | -0.0745
GACCGGGC | -0.143
AATTACCA | 0.0983
CTAACCTA | 0.168
GAATCGAC | 0.192
GAGACTGA | -0.0293
CGCTTACA | -0.0388
GCCCATAA | -0.107
CTGTAGCC | -0.207
GCTCACCA | -0.0261
TGTAGCAA | 0.0839
ATTATGTC | 0.039
AAGCTTCC | -0.206

Sequence | PBM E-score
GGGCAGGA | -0.0226
CTTGGGCA | 0.0776
GCTCCCCA | -0.225
ATAGATTC | -0.0319
ATACGTAT | 0.176
AACGATTA | 0.00656
ATCGGCGA | -0.0472
ATGGCACG | -0.0541
CAACATGG | -0.0246
ACCCTGCA | 0.376
GGGACGTA | -0.0296
AAAAGTGT | 0.0195
AGCATGGG | -0.175
GAATGAGA | 0.114
AATGTGCA | 0.0816
GGAGTGCA | 0.0599
AGTGAGCG | 0.0427
GTAAATAC | -0.0746
AAGCAAGC | -0.0394
AAGTTTCC | 0.133
TTGCGAAA | 0.153
GAAAAGTA | 0.0939
